Assay results taken from publication PMC2238750.

Assays:
[1] = target: isolated GST-EH1 domain of Eps15; assay: pull-down; GST fusions (50 ug) on glutathione-sepharose beads incubated with Hek293 cell extract; EH buffer, 2 h at 4 °C; endogenous Eps15 detected with anti-Eps15 blot; only the target purified
[2] = target: N-terminal region of Eps15 comprising three EH domains (EH1-EH2-EH3) fused to GST (not stated (mouse in p-0016, human in p-0034)); assay: as above

binding [1]: binds
binding [2]: binds
B1: full length Eps15 (endogenous, Hek293) (protein, UniProt P42566 1-896)
chain: MAAAAQLSLTQLSSGNPVYEKYYRQVDTGNTGRVLASDAAAFLKKSGLPDLILGKIWDLADTDGKGILNKQEFFVALRLVACAQNGLEVSLSSLNLAVPPPRFHDTSSPLLISGTSAAELPWAVKPEDKAKYDAIFDSLSPVNGFLSGDKVKPVLLNSKLPVDILGRVWELSDIDHDGMLDRDEFAVAMFLVYCALEKEPVPMSLPPALVPPSKRKTWVVSPAEKAKYDEIFLKTDKDMDGFVSGLEVREIFLKTGLPSTLLAHIWSLCDTKDCGKLSKDQFALAFHLISQKLIKGIDPPHVLTPEMIPPSDRASLQKNIIGSSPVADFSAIKELDTLNNEIVDLQREKNNVEQDLKEKEDTIKQRTSEVQDLQDEVQRENTNLQKLQAQKQQVQELLDELDEQKAQLEEQLKEVRKKCAEEAQLISSLKAELTSQESQISTYEEELAKAREELSRLQQETAELEESVESGKAQLEPLQQHLQDSQQEISSMQMKLMEMKDLENHNSQLNWCSSPHSILVNGATDYCSLSTSSSETANLNEHVEGQSNLESEPIHQESPARSSPELLPSGVTDENEVTTAVTEKVCSELDNNRHSKEEDPFNVDSSSLTGPVADTNLDFFQSDPFVGSDPFKDDPFGKIDPFGGDPFKGSDPFASDCFFRQSTDPFATSSTDPFSAANNSSITSVETLKHNDPFAPGGTVVAASDSATDPFASVFGNESFGGGFADFSTLSKVNNEDPFRSATSSSVSNVVITKNVFEETSVKSEDEPPALPPKIGTPTRPCPLPPGKRSINKLDSPDPFKLNDPFQPFPGNDSPKEKDPEIFCDPFTSATTTTNKEADPSNFANFSAYPSEEDMIEWAKRESEREEEQRLARLNQQEQEDLELAIALSKSEISEA

These are yes or no findings as the source states them, for the method shown. Binding seen in cells or lysates may run through a third protein. A result given as binding can be weak or reduced; the word gives no strength.
